# Measured values taken from PMC3912138.
# Protein sequences, listed by entry. Tags and fused reporters are not part of them.
# UniProt P55884: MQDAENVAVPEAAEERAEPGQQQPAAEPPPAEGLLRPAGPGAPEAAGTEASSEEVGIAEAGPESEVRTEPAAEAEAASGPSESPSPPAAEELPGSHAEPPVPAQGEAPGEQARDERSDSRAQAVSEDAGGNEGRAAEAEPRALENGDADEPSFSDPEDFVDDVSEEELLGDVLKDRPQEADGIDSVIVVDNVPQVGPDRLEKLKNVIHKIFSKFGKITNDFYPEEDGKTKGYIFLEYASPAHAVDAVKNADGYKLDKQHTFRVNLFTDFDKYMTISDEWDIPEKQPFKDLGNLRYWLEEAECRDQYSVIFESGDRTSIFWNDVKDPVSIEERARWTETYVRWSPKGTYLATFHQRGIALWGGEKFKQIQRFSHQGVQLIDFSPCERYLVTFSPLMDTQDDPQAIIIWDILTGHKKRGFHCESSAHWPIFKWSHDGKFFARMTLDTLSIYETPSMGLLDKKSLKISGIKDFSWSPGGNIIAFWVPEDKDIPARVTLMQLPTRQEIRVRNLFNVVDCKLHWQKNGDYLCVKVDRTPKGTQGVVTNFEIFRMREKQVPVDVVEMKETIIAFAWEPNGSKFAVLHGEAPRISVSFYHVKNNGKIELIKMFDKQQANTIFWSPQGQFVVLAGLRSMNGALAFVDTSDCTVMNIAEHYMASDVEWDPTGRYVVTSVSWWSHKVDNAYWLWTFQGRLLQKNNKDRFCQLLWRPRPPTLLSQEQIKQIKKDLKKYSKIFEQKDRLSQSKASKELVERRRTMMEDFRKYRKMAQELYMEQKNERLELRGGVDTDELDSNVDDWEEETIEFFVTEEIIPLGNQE
# Molecular target: T1, CERKL-C125W-Flag (pathological point mutant of CERKLa) (human) (UniProt Q49MI3)
# T1 sequence: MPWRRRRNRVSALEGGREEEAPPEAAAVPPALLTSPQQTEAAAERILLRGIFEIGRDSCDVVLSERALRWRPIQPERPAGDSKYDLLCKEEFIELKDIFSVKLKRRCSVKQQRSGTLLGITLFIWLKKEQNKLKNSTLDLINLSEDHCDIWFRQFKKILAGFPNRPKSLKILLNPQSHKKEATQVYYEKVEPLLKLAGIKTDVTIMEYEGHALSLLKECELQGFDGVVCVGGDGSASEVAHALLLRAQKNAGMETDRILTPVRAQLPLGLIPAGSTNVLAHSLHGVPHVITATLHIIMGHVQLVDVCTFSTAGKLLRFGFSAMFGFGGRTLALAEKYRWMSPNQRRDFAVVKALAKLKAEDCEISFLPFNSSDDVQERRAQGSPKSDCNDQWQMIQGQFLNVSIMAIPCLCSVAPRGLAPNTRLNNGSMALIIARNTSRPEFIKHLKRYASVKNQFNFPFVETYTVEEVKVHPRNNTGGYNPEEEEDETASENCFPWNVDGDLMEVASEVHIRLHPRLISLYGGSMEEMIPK
# Assay: affinity purification with mass spectrometry; Flag immunoprecipitation (M2 Flag beads, eluted with Flag peptide) from lysates of HEK-293T cells overexpressing Flag-tagged GFP, CERKL-WT or CERKL-C125W; 8% and 20% SDS-PAGE, silver stain, differential bands excised and identified by LC-MS/MS
row,Substance,binding
1,HSP70 (human (endogenous in HEK-293T)),binds
2,PABP (poly(A) binding protein) (human (endogenous in HEK-293T)),binds
3,eIF3B (translation initiation factor eIF3B) (from UniProt P55884 1-814),no binding

# Molecular target: T2, CERKL-Flag (CERKLa, full length CERKL isoform of 532 amino acids, wild type) (human) (UniProt Q49MI3)
# T2 sequence: T1 sequence with W125C
# Assay: as above
row,Substance,binding
1,alpha-tubulin (human (endogenous in HEK-293T)),binds
2,beta-tubulin (human (endogenous in HEK-293T)),binds
3,eIF3B (translation initiation factor eIF3B) (from UniProt P55884 1-814),binds

# Where a chain is given by its changes, count along the chain named. Results are given in words; binding and its absence hold for the method and conditions named. In cells and extracts the contact can be indirect. A yes stands for co-enrichment or nearness to the bait. Other partners may have been found. For part of these data: No binding means not detected with the bait. Sequences can lack the tags named with a protein.
